Read-outs that look alike come from different tables or passages of the source. Some results were stated once for a whole list of compounds, not compound by compound. At least one structure is not confirmed: it was looked up by name or label, or the drawing left a doubt.
System: Pa03C and Panc10.05 tumor cells
Assay: 3D spheroid / co-culture model of pancreatic cancer (both patient lines)

| SMILES | LC50 fold lower than APX3330 (3D PDAC tumor+CAF co-cultures, 10.05 or Pa03C) | LC50 fold lower than APX3330 |
| --- | --- | --- |
| CCC/C(=C\C1=C(OC)C(=O)c2ccccc2C1=O)C(=O)N(CC)CC [APX2009, (2E)-2-[(3-methoxy-1,4-dioxo-1,4-dihydronaphthalen-2-yl)methylidene]-N,N-diethylpentanamide] | 4-50 fold |  |
| CCC/C(=C\C1=C(OC)C(=O)c2ccccc2C1=O)C(=O)NOC [APX2014, (2E)-2-[(3-methoxy-1,4-dioxo-1,4-dihydronapthalen-2-yl)methylidene]-N-methoxypentanamide] |  | 4-50 fold |
